Some results were stated once for a whole list of compounds, not compound by compound. At least one structure is not confirmed: it was looked up by name or label, or the drawing left a doubt.
Tests used:
[1] = system: barley net blotch fungi (Pyrenophora teres); assay: Test Example 1: barley net blotch, foliar spray before inoculation; assay type: in vivo; settings: barley (cv Nishinohoshi), 500 ppm foliar spray, inoculated after 2 days
[2] = system: rice blast fungi (Magnaporthe grisea); assay type: in vivo; settings: rice (cv Nipponbare), 500 ppm foliar spray, 6 days contact with infected seedlings
[3] = system: powdery mildew fungi (Sphaerotheca fuliginea; QoI resistant strain, cytochrome b G143A); assay: Test Example 5: cucumber powdery mildew (QoI resistant strain), foliar spray; assay type: in vivo; settings: cucumber (cv Sagamihanjiro), 500 ppm foliar spray, 8 days
[4] = system: leaf mold (Cladosporium fulvum; QoI resistant strain, cytochrome b F129L); assay: Test Example 12: tomato leaf mold growth inhibition in titer plate (absorbance 550 nm); assay type: cell-based; settings: 150 ppm DMSO solution, 1 L portion + 150 μL PDB medium with spores, 18° C., 6 days
[5] = system: wheat rust fungi (Puccinia recondita); assay: Test Example 13 / Comparative Test Example 1: wheat rust, foliar spray; assay type: in vivo; settings: wheat (cv Shirogane), 12.5 ppm foliar spray, inoculated after 5 days
Experimental: (§1) A plastic pot was filled with soil and thereto wheat (cv; Shirogane) seeds were sown and the plants were grown in a greenhouse for 9 days. Any of the present compounds 1, 2, 3, 5, 6, 7, 8, 9, 10, 12, 13, 14, 15, 18, 19, 20, 21, 26, 27 and 28 each of which was made to a formulation according to the similar method to that of Formulation Example 6, was adjusted with water so as to be 12.5 ppm, and the adjusted solutions were sprayed to foliar parts so as to adhere adequately on the leaves of the above-mentioned wheat. After spraying the adjusted solutions, the plants were air-dried and were then cultivated at 20° C. under lighting for 5 days. The spores of wheat rust fungi (Puccinia recondita) were sprinkling-inoculated. After the inoculation, the plants were placed under a dark and humid condition at 23° C. for 1 day and were then cultivated at 20° C. under lighting for 8 days, and a lesion area was observed.
as §1, with “soils” for “soil”, “thereto was seeded” for “thereto”, “Shirogane)” for “Shirogane) seeds were sown”, “1-(2-{[2-methyl-4-(1-methyl-1H-pyrazol-3-yl)phenoxy]methyl}-3-methylphenyl)-4-m ethyl-4,5-dihydrotetrazole-5-one” for “Any of the present compounds 1, 2, 3, 5, 6, 7, 8, 9, 10, 12, 13, 14, 15, 18, 19, 20, 21, 26, 27 and 28 each of”, “6” for “6,”, “ppm. The” for “ppm, and the”

COCn1nc(-c2cc(C)c(OCc3ccccc3-n3nnn(C)c3=O)cc2C)cc1C [compound 16]
lesion area compared to the lesion area in untreated plants [1]: ≤ 10%
lesion area compared to the lesion area in untreated plants [2]: ≤ 10%
lesion area compared to the lesion area in untreated plants [3]: ≤ 10%

CCOCn1nc(-c2ccc(OCc3c(C)cccc3-n3nnn(C)c3=O)c(C)c2)cc1F [compound 24]
inhibitory ratio (fungal growth) [4]: ≥ 80%

COCn1nc(-c2ccc(OCc3c(C)cccc3-n3nnn(C)c3=O)c(C)c2)cc1Cl [compound 18]
inhibitory ratio (fungal growth) [4]: ≥ 80%
lesion area compared to the lesion area in untreated plants [5]: ≤ 30%

COCn1nc(-c2ccc(OCc3c(C)cccc3-n3nnn(C)c3=O)c(C)c2)cc1F [compound 23]
lesion area compared to the lesion area in untreated plants [1]: ≤ 10%
inhibitory ratio (fungal growth) [4]: ≥ 80%

COCn1ccc(-c2cc(C)c(OCc3c(C)cccc3-n3nnn(C)c3=O)cc2C)n1 [compound 4]
lesion area compared to the lesion area in untreated plants [1]: ≤ 10%
inhibitory ratio (fungal growth) [4]: ≥ 80%

COCCn1ccc(-c2ccc(OCc3c(C)cccc3-n3nnn(C)c3=O)c(C)c2)n1 [compound 10]
lesion area compared to the lesion area in untreated plants [2]: ≤ 10%
lesion area compared to the lesion area in untreated plants [3]: ≤ 10%
inhibitory ratio (fungal growth) [4]: ≥ 80%
lesion area compared to the lesion area in untreated plants [5]: ≤ 30%

COCn1nc(-c2ccc(OCc3c(C)cccc3-n3nnn(C)c3=O)c(C)c2)cc1C [compound 2]
lesion area compared to the lesion area in untreated plants [1]: ≤ 10%
lesion area compared to the lesion area in untreated plants [2]: ≤ 10%
lesion area compared to the lesion area in untreated plants [3]: ≤ 10%
inhibitory ratio (fungal growth) [4]: ≥ 80%
lesion area compared to the lesion area in untreated plants [5]: ≤ 30%

COCCn1nc(-c2ccc(OCc3c(C)cccc3-n3nnn(C)c3=O)c(C)c2)cc1C [compound 11]
lesion area compared to the lesion area in untreated plants [1]: ≤ 10%
lesion area compared to the lesion area in untreated plants [2]: ≤ 10%
lesion area compared to the lesion area in untreated plants [3]: ≤ 10%
inhibitory ratio (fungal growth) [4]: ≥ 80%

CCOCCn1ccc(-c2ccc(OCc3c(C)cccc3-n3nnn(C)c3=O)c(C)c2)n1 [compound 14]
lesion area compared to the lesion area in untreated plants [2]: ≤ 10%
inhibitory ratio (fungal growth) [4]: ≥ 80%
lesion area compared to the lesion area in untreated plants [5]: ≤ 30%

COCn1nc(-c2ccc(OCc3c(C)cccc3-n3nnn(C)c3=O)c(C)c2)c(C)c1F [compound 21]
lesion area compared to the lesion area in untreated plants [1]: ≤ 10%
lesion area compared to the lesion area in untreated plants [3]: ≤ 10%
inhibitory ratio (fungal growth) [4]: ≥ 80%
lesion area compared to the lesion area in untreated plants [5]: ≤ 30%

CCOCn1cc(C)c(-c2ccc(OCc3c(C)cccc3-n3nnn(C)c3=O)c(C)c2)n1 [compound 8]
lesion area compared to the lesion area in untreated plants [1]: ≤ 10%
lesion area compared to the lesion area in untreated plants [2]: ≤ 10%
lesion area compared to the lesion area in untreated plants [3]: ≤ 10%
inhibitory ratio (fungal growth) [4]: ≥ 80%
lesion area compared to the lesion area in untreated plants [5]: ≤ 30%

COCCn1nc(-c2cc(C)c(OCc3c(C)cccc3-n3nnn(C)c3=O)cc2C)cc1C [compound 13]
lesion area compared to the lesion area in untreated plants [2]: ≤ 10%
lesion area compared to the lesion area in untreated plants [3]: ≤ 10%
inhibitory ratio (fungal growth) [4]: ≥ 80%
lesion area compared to the lesion area in untreated plants [5]: ≤ 30%

COCn1nc(-c2cc(C)c(OCc3c(C)cccc3-n3nnn(C)c3=O)cc2C)cc1C [compound 5]
lesion area compared to the lesion area in untreated plants [1]: ≤ 10%
inhibitory ratio (fungal growth) [4]: ≥ 80%
lesion area compared to the lesion area in untreated plants [5]: ≤ 30%

CCOCn1nc(-c2ccc(OCc3c(C)cccc3-n3nnn(C)c3=O)c(C)c2)c(C)c1F [compound 22]
lesion area compared to the lesion area in untreated plants [1]: ≤ 10%
lesion area compared to the lesion area in untreated plants [3]: ≤ 10%
inhibitory ratio (fungal growth) [4]: ≥ 80%

COCCn1cc(C)c(-c2ccc(OCc3c(C)cccc3-n3nnn(C)c3=O)c(C)c2)n1 [compound 12]
lesion area compared to the lesion area in untreated plants [1]: ≤ 10%
lesion area compared to the lesion area in untreated plants [2]: ≤ 10%
lesion area compared to the lesion area in untreated plants [3]: ≤ 10%
inhibitory ratio (fungal growth) [4]: ≥ 80%
lesion area compared to the lesion area in untreated plants [5]: ≤ 30%

CCOCn1nc(-c2cc(C)c(OCc3ccccc3-n3nnn(C)c3=O)cc2C)cc1C [compound 17]
lesion area compared to the lesion area in untreated plants [1]: ≤ 10%
lesion area compared to the lesion area in untreated plants [2]: ≤ 10%
lesion area compared to the lesion area in untreated plants [3]: ≤ 10%

CCOCn1nc(-c2ccc(OCc3c(C)cccc3-n3nnn(C)c3=O)c(C)c2)cc1C [compound 7]
lesion area compared to the lesion area in untreated plants [1]: ≤ 10%
lesion area compared to the lesion area in untreated plants [2]: ≤ 10%
lesion area compared to the lesion area in untreated plants [3]: ≤ 10%
inhibitory ratio (fungal growth) [4]: ≥ 80%
lesion area compared to the lesion area in untreated plants [5]: ≤ 30%

CCOCn1ccc(-c2ccc(OCc3c(C)cccc3-n3nnn(C)c3=O)c(C)c2)n1 [compound 6]
lesion area compared to the lesion area in untreated plants [2]: ≤ 10%
inhibitory ratio (fungal growth) [4]: ≥ 80%
lesion area compared to the lesion area in untreated plants [5]: ≤ 30%

COCCn1nc(-c2ccc(OCc3c(C)cccc3-n3nnn(C)c3=O)c(C)c2)cc1Cl [compound 20]
lesion area compared to the lesion area in untreated plants [1]: ≤ 10%
lesion area compared to the lesion area in untreated plants [3]: ≤ 10%
inhibitory ratio (fungal growth) [4]: ≥ 80%
lesion area compared to the lesion area in untreated plants [5]: ≤ 30%

CCOCn1nc(-c2ccc(OCc3c(C)cccc3-n3nnn(C)c3=O)c(C)c2)c(Cl)c1C [compound 26]
lesion area compared to the lesion area in untreated plants [1]: ≤ 10%
lesion area compared to the lesion area in untreated plants [3]: ≤ 10%
inhibitory ratio (fungal growth) [4]: ≥ 80%
lesion area compared to the lesion area in untreated plants [5]: ≤ 30%

COCn1cc(C)c(-c2ccc(OCc3c(C)cccc3-n3nnn(C)c3=O)c(C)c2)n1 [compound 3]
lesion area compared to the lesion area in untreated plants [1]: ≤ 10%
lesion area compared to the lesion area in untreated plants [2]: ≤ 10%
lesion area compared to the lesion area in untreated plants [3]: ≤ 10%
inhibitory ratio (fungal growth) [4]: ≥ 80%
lesion area compared to the lesion area in untreated plants [5]: ≤ 30%

CCOCCn1nc(-c2cc(C)c(OCc3c(C)cccc3-n3nnn(C)c3=O)cc2C)cc1C [compound 15]
lesion area compared to the lesion area in untreated plants [2]: ≤ 10%
lesion area compared to the lesion area in untreated plants [3]: ≤ 10%
inhibitory ratio (fungal growth) [4]: ≥ 80%
lesion area compared to the lesion area in untreated plants [5]: ≤ 30%

CCOCn1nc(-c2ccc(OCc3c(C)cccc3-n3nnn(C)c3=O)c(C)c2)cc1Cl [compound 19]
lesion area compared to the lesion area in untreated plants [1]: ≤ 10%
inhibitory ratio (fungal growth) [4]: ≥ 80%
lesion area compared to the lesion area in untreated plants [5]: ≤ 30%
